# Patent publication EP2163246A1, “Taurine or taurine-like substances for the prevention of the irreversible visual effects of vigabatrin” (INSERM (Institut National de la Santé et de la Recherche …, priority 2008, dated 2010)
# Details: albino rats, VGB 40 mg daily i.p. 65 days, n=5, s.e.m.; for Blood concentrations for amino acids: Taurine: control 373,4 ± 46,7
smiles,measurement,setting,value
"C=CC(N)CCC(=O)O (centres unmarked) [VGB, 4-amino-5-hexenoic acid]",Blood concentrations for amino acids: Phenylalanine,"control 54,2 ± 6, 9","42,8 ± 1,0 µM"
same,Blood concentrations for amino acids: Citrulline,"control 54 ± 9,7","45,6 ± 4,2 µM"
same,Blood concentrations for amino acids: Methionine,"control 58 ± 4,7, * significant","45 ± 1,4 * µM"
same,Blood concentrations for amino acids: Tyrosine,"control 63,2 ± 6,8","51,6 ± 4,5 µM"
same,Blood concentrations for amino acids: Histidine,"control 75,8 ± 5,4","63,2 ± 2,9 µM"
same,Blood concentrations for amino acids: Ornithine,control 78.6 ± 33.0,57.6 ± 10.6 µM
same,Blood concentrations for amino acids: Isoleucine,"control 79,8 ± 8,0","68,2 ± 4,5 µM"
same,Blood concentrations for amino acids: Arginine,"control 130 ± 39,0","111,8 ± 15,1 µM"
same,Blood concentrations for amino acids: Leucine,"control 152,6 ± 17,6","123,2 ± 11,5 µM"
same,Blood concentrations for amino acids: Proline,"control 155 ± 21,0","110,6 ± 20,1 µM"
same,Blood concentrations for amino acids: Valine,"control 167, 4 ± 14,8","146 ±8,9 µM"
same,Blood concentrations for amino acids: Glycine,"control 190,6 ± 30,1","142,8 ± 17,6 µM"
same,Blood concentrations for amino acids: Thréonine,"control 194,2 ± 30,8","130,6 ± 7,0 µM"
same,Blood concentrations for amino acids: Sérine,"control 203,8 ± 28,7","169,4 ± 16,1 µM"
same,Blood concentrations for amino acids: Acide glutamique,"control 217,4 ± 56,6, * significant","94.8±15.6 µM and 94,8 ± 15,6 * µM"
same,Blood concentrations for amino acids: Alanine,"control 303,8 ± 32,3","270,4 ± 29,5 µM"
same,Blood concentrations for amino acids: Lysine,"control 307,2 ± 23,8","260,4 ± 32,3 µM"
same,Blood concentrations for amino acids: Taurine,* significant,"122.2±26.6 µM and 122,2 ± 26,6 * µM"
same,Blood concentrations for amino acids: Taurine,"* significant, listed as vigabatrin",122.2 µM
same,Blood concentrations for amino acids: Glutamine,"control 375,6 ± 40,7","349 ± 13,4 µM"

# Where “and” joins values, the source holds several entries; their conditions need not be identical. Equal values may be shown once. Read-outs that look alike come from different tables or passages of the source.
